Measured values as given in patent US8080377B2, “Method for confirming the exposure on chrysene” (Korea Institute of Science and Technology, priority 2008, dated 2011).
This continues a long series; more values of the same kind are listed elsewhere.

System: HepG2 cells
Assay: 44 k whole human genome oligo microarray gene expression, cells treated with chrysene at IC20 for 48 hours (Cy5) vs untreated control (Cy3)
Assay type: cell-based
Description: HepG2 cells were distributed on a 100 mm dish at the concentration of 6×10^6 cell/ml, to which chrysene was treated for 48 hours at the concentration that was determined in Example <1-2>. Total RNA was extracted from the cells using trizol reagent (Invitrogen life technologies, USA) according to the manufacturer's instruction and the extracted RNA was purified by using RNeasy mini kit (Qiagen, USA). The genomic DNA was eliminated during the purification of RNA using RNase-free DNase set (Qiagen, USA). The total RNA was quantified by spectrophotometer and purity was measured by Agilent 2100 Bioanalyzer (Agilent Technologies, USA) and agarose gel-electrophoration.
For oligo-microarray analysis, cDNA was synthesized using the total RNA extracted from the experimental group treated with chrysene obtained in Example <2-1>. 30 μg of the total RNA and 2 μg (1 μg/μl) of oligo (dT) primer were mixed, followed by reaction for 10 minutes at 65° C. Then, the reaction mixture was put in ice, followed by annealing. Reagents were mixed as shown in Table 1 for reverse transcription of the RNA.
The total RNA extracted from the control HepG2 cell line was labeled with Cy3-dUTP (green), while the RNA extracted from the experimental HepG2 cell line treated with chrysene was labeled with Cy5-dUTP (red). At this time, the two samples were mixed and purified by Microcon YM-30 column (Millipore, USA).
Hybridization and washing were performed according to the instruction of GeneoCheck Co., Ltd. Hybridization was performed in a 62° C. oven for 12 hours. At this time, 44 k whole human genome oligo microarray (Agilent, USA) was used as a DNA microarray chip. After washing (with 2×SSC/0.1% SDS for 2 minutes, with 1×SSC for 3 minutes, with 0.2×SSC for 2 minutes), the slide was centrifuged at 800 rpm for 3 minutes and dried.
Scanning of the hybridized images on the slide was performed by using Genepix 4000B (Axon Instruments, USA). Fluorescence images of the chip washed to eliminate non-binding genes were obtained by laser fluorescence scanner. At this time, green fluorescent images indicated the activity of the gene expressed in the control, whereas red fluorescent images indicated the activity of the gene expressed specifically in the experimental group. […] The scanned images were analyzed by GenePix 4.1 software (Axon Instruments, USA) to calculate the gene expression rate. Based on the obtained data, marker genes for chrysene were selected (see FIG. 2).

c1ccc2c(c1)ccc1c3ccccc3ccc21 [chrysene]
Ratio of intermediate value (KITLG (NM_000899)): 3.752
Ratio of intermediate value (LAMA3 (NM_198129)): 6.314
Ratio of intermediate value (LAMP3 (BC032940)): 2.729
Ratio of intermediate value (LEFTY1 (NM_020997)): 4.012
Ratio of intermediate value (LGALS1 (NM_002305)): 2.686
Ratio of intermediate value (LGALS7 (CN478604)): 4.216
Ratio of intermediate value (LHX6 (AK126982)): 3.754
Ratio of intermediate value (LOC283130 (AL050210)): 3.265
Ratio of intermediate value (LOC343521 (NM_001013632)): 5.344
Ratio of intermediate value (LOXL1 (NM_005576)): 3.992
Ratio of intermediate value (LRMP (NM_006152)): 3.453
Ratio of intermediate value (LRP10 (NM_014045)): 4.617
Ratio of intermediate value (LTB4DH (AK091948)): 2.915
Ratio of intermediate value (MAP3K14 (NM_003954)): 2.642
Ratio of intermediate value (MB (BF670653)): 3.908
Ratio of intermediate value (MDM2 (M92424)): 4.057
Ratio of intermediate value (MGC4734 (AK091940)): 3.644
Ratio of intermediate value (MGC13186 (BX537541)): 3.712
Ratio of intermediate value (MGC17986 (BC041578)): 3.167
Ratio of intermediate value (MICAL-L1 (AB051455)): 3.221
Ratio of intermediate value (MICAL-L2 (AK074068)): 3.122
Ratio of intermediate value (MLPH (NM_024101)): 3.369
Ratio of intermediate value (MTA2 (NM_004739)): 2.439
Ratio of intermediate value (MYO6 (NM_004999)): 3.021
Ratio of intermediate value (NIFUN (NM_014301)): 3.923
Ratio of intermediate value (NP (AK126154)): 2.252
Ratio of intermediate value (NR0B2 (BC030207)): 2.924
Ratio of intermediate value (NRP1 (NM_003873)): 2.102
Ratio of intermediate value (OSBPL3 (NM_145323)): 2.684
Ratio of intermediate value (OSMR (BC063468)): 2.653
Ratio of intermediate value (P2RX1 (BC027949)): 2.094
Ratio of intermediate value (P4HA2 (NM_004199)): 4.764
Ratio of intermediate value (PCNA (BM462208)): 5.947
Ratio of intermediate value (PCNP (BX647886)): 2.133
Ratio of intermediate value (PDCD6 (AB033060)): 5.709
Ratio of intermediate value (PHLDA1 (BC047362)): 2.031
Ratio of intermediate value (PHLDA2 (NM_003311)): 3.66
Ratio of intermediate value (PLAC2 (BC036545)): 4.74
Ratio of intermediate value (PLCD1 (BX647927)): 2.791
Ratio of intermediate value (PLTP (AK097009)): 6.838
Ratio of intermediate value (PML (NM_033245)): 2.031
Ratio of intermediate value (POLH (AB024313)): 3.515
Ratio of intermediate value (PP2135 (NM_022153)): 6.334
Ratio of intermediate value (PPP2CB (NM_001009552)): 2.132
Ratio of intermediate value (PPP3CB (NM_021132)): 2.196
Ratio of intermediate value (PRF1 (BC063043)): 2.301
Ratio of intermediate value (PRKAB1 (BC001823)): 2.07
Ratio of intermediate value (PTTG1 (BU675073)): 2.179
Ratio of intermediate value (PYCARD (NM_013258)): 2.705
Ratio of intermediate value (RAD51C (BC073161)): 2.093
Ratio of intermediate value (RARA (BC038432)): 2.871
Ratio of intermediate value (RASAL1 (AB208935)): 13.23
Ratio of intermediate value (RB1 (L41870)): 2.431
Ratio of intermediate value (RBP3 (NM_002900)): 2.882
Ratio of intermediate value (REC8L1 (AL832973)): 2.05
Ratio of intermediate value (RGC32 (AK095079)): 3.294
Ratio of intermediate value (RHOC (AK094474)): 4.228
Ratio of intermediate value (RPS27L (BF983391)): 4.896
Ratio of intermediate value (S100A11 (BQ683841)): 6.064
Ratio of intermediate value (S100A13 (NM_005979)): 2.388
Ratio of intermediate value (S100A16 (NM_080388)): 2.608
Ratio of intermediate value (SESN1 (AF033122)): 3.728
Ratio of intermediate value (SFRP4 (AF026692)): 2.098
Ratio of intermediate value (SH2D2A (NM_003975)): 6.609
Ratio of intermediate value (SH3BGRL3 (NM_031286)): 2.915
Ratio of intermediate value (SHBG (CD013956)): 3.686
Ratio of intermediate value (SLC4A11 (AF336127)): 4.117
Ratio of intermediate value (SLC6A12 (AK125026)): 3.756
Ratio of intermediate value (SLC12A4 (NM_005072)): 2.184
Ratio of intermediate value (SLC16A5 (AK092512)): 2.578
Ratio of intermediate value (SLC22A2 (AB075951)): 3.984
Ratio of intermediate value (SLC35A4 (AF445025)): 3.019
Ratio of intermediate value (SLC37A2 (AK074100)): 8.472
Ratio of intermediate value (SLC40A1 (NM_014585)): 4.61
Ratio of intermediate value (SPP1 (NM_000582)): 3.007
Ratio of intermediate value (SQSTM1 (AK096241)): 2.016
Ratio of intermediate value (SSB1 (NM_025106)): 2.523
Ratio of intermediate value (SSR1 (CR936719)): 2.559
Ratio of intermediate value (STK17A (BX537586)): 2.174
Ratio of intermediate value (STX6 (NM_005819)): 3.089
Ratio of intermediate value (SYTL1 (NM_032872)): 4.931
Ratio of intermediate value (TALDO1 (AK130060)): 2.107
Ratio of intermediate value (TBC1D8 (AB024057)): 2.535
Ratio of intermediate value (TDH (AK057762)): 12.35
Ratio of intermediate value (TEP1 (U86136)): 5.355
Ratio of intermediate value (TGM4 (BC007003)): 24.07
Ratio of intermediate value (TIMP1 (BM913048)): 14.52
Ratio of intermediate value (TM4SF5 (W84524)): 1.768
Ratio of intermediate value (TMSB10 (BQ276852)): 1.864
Ratio of intermediate value (TNFAIP8 (AK097284)): 3.301
Ratio of intermediate value (TNFRSF10B (NM_003842)): 2.165
Ratio of intermediate value (TNFRSF14 (NM_003820)): 4.242
Ratio of intermediate value (TP53AP1 (BC068535)): 3.847
Ratio of intermediate value (TP53INP1 (AK125880)): 4.731
Ratio of intermediate value (TRIM38 (CR936707)): 3.756
Ratio of intermediate value (TSPAN1 (NM_005727)): 8.455
Ratio of intermediate value (TUBA1 (AK054731)): 4.193
Ratio of intermediate value (TUBA4 (AK024002)): 7.428
Ratio of intermediate value (TUBB6 (AK092677)): 6.458
Ratio of intermediate value (TWIST1 (NM_000474)): 2.962
Ratio of intermediate value (TXN (NM_003329)): 2.325
Ratio of intermediate value (TXNRD1 (NM_003330)): 2.811
Ratio of intermediate value (TYMS (NM_001012716)): 3.124
Ratio of intermediate value (UCP2 (AK025742)): 3.187
Ratio of intermediate value (UGT2B7 (J05428)): 2.292
Ratio of intermediate value (UNC5C (AF055634)): 2.645
Ratio of intermediate value (UNQ2541 (BC035124)): 11.28
Ratio of intermediate value (UNQ6077 (XM_496436)): 2.011
Ratio of intermediate value (VTI1B (BC042390)): 4.486
Ratio of intermediate value (ZNF337 (BC034569)): 4.083
Ratio of intermediate value (ZNF385 (AY461717)): 20.23
Ratio of intermediate value (ZSCAN4 (AK092424)): 17.63
